From PubChem BioAssay AID504327 (National Center for Advancing Translational Sciences (NCATS), 2011)
Screen size: about 390,000 compounds; about 820 (0.21%) were called active. The shares of active, inactive and inconclusive entries below differ from those in the screen. The call rests on the fitted dose curve; in most records, active means well fitted inhibition curve with a large enough effect; inconclusive means small, poorly fitted or top-dose-only effect, or another doubt; inactive means no such curve, though single readings can be large or run the other way. A potency beside an inconclusive call is a rough fit, not a confirmed value. The source holds several records for some structures; these can differ, active in one and inactive in another.

The chains behind the UniProt entries cited, without tags or fusion partners.
UniProt Q92830, whole entry, looked up: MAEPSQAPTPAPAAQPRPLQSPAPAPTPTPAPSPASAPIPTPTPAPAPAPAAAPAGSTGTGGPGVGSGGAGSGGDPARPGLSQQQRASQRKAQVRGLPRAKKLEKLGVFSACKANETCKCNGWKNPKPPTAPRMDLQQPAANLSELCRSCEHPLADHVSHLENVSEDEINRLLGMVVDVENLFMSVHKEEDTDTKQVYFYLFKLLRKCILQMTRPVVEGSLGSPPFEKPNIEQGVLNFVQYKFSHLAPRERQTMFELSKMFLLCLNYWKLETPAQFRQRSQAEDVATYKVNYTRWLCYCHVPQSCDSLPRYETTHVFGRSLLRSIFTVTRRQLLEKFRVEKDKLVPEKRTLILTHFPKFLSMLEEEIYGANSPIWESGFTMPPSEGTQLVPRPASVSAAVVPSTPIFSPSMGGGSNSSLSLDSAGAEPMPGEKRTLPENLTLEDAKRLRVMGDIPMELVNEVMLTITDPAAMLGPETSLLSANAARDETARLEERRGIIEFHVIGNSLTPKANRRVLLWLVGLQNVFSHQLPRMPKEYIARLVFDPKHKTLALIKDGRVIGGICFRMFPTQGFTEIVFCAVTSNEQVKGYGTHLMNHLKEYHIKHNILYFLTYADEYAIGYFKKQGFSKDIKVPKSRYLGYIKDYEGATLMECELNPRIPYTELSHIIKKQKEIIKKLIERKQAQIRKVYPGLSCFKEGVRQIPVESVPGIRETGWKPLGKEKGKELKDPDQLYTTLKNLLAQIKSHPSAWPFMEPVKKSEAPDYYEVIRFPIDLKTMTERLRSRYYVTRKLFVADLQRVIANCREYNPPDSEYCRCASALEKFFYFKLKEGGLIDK

Molecular target: Histone acetyltransferase KAT2A (Homo sapiens) (UniProt Q92830)
Assay: qHTS Assay for Inhibitors of GCN5L2
Conditions: GCN5L2 HAT assay, ThioGlo1 CoA-SH fluorescence; series mostly up to 58.9 µM
Procedure, shortened: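 Fluorescence readout, Ex340nm/Em540nm: ThioGlo1 (50uM final) reacts with free CoA thiol released as 20nM GCN5L2 acetylates H3(1-25) peptide (75uM) using acetyl-CoA (70uM). Compound and enzyme sat 15 min beforehand; 20 min room-temperature reaction.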
Potency means the concentration at half of the fitted maximal effect.

| SMILES | Potency |
| --- | --- |
| CCOC(=O)C(C)N1C(=O)S/C(=C/c2cc(C)n(-c3ccccn3)c2C)C1=O (centres undefined) | inactive |
| Cc1c(C(=O)N2CCN(c3ccc(F)cc3)CC2)sc2nc3n(c(=O)c12)CCC3 | inactive |
| O=C(NCc1ccc(Cl)cc1)c1ccc2nc[nH]c2c1 | inactive |
| CC(C)c1ccc(C(C)NCCS(=O)(=O)c2ccc(Br)cc2)cc1 (centres undefined) | inconclusive: 0.708 µM [inhibitor, single point] |
| O=C(c1ccc2c(c1)OCO2)C1CCCN(Cc2cc(F)ccc2-n2cccn2)C1 (centres undefined) | inconclusive: 3.55 µM [inhibitor, single point] |
| COc1cccc(NC(=O)Cn2c(=O)n(Cc3ccc(C(=O)NCc4ccc5c(c4)OCO5)cc3)c(=O)c3ccccc32)c1 | inactive |
| Cc1cccc2cc(CN(Cc3ccco3)C(c3nnnn3CCc3ccccc3)C(C)C)c(=O)[nH]c12 (centres undefined) | inactive |
| Cc1cc(C)n2cc(CSCc3ccco3)nc2n1 | inconclusive: 39.8 µM [inhibitor, partial curve, poor fit] |
| CCOC(=O)C1=C(C)N(c2ccc(C)cc2)C(=O)/C1=C\c1ccc(O)c(OC)c1 | inconclusive: 25.1 µM [inhibitor, single point] |
| CCn1c2ccccc2c2cc(NC(=O)COC(=O)c3ccc(NC(=O)CC#N)cc3)ccc21 | inconclusive: 14.1 µM [inhibitor, partial curve] |
| N#CCSc1n[nH]c2nc3c(c(=O)n12)C1(CCCCC1)Cc1ccccc1-3 | inconclusive: 0.141 µM [inhibitor, full curve, poor fit] |
| CCOC(=O)c1cnc2c(C)cc(Cl)cc2c1N1CCN(C)CC1 | inconclusive: 8.91 µM [inhibitor, single point] |
| CCCCCC(=O)Nc1ccc(S(=O)(=O)Nc2nccnc2OC)cc1 | inconclusive: 8.91 µM [inhibitor, single point] |
| Cc1ccc(Cl)cc1N1CCN(C(=O)c2ccc(CS(=O)(=O)c3ccc(Br)cc3)o2)CC1 | inactive |
| CC(C(=O)NC1C=CS(=O)(=O)C1)N1C(=O)/C(=C/c2ccc(Cl)cc2)SC1=S (centres undefined) | inactive |
| COc1ccccc1NC(=S)N(CCc1nc2cc(C)c(C)cc2[nH]1)Cc1cccnc1 | inactive |
| CC(=O)Oc1ccc2c(c1)OC(c1ccccc1)CC21CC(C)(C)NC(=S)N1 (centres undefined) | inconclusive: 28.2 µM [inhibitor, single point] |
| CC1CCc2sc(C(=O)N(C)CC(=O)Nc3ccc(N4CCOCC4)cc3)cc2C1 (centres undefined) | inconclusive: 35.5 µM [inhibitor, single point] |
| Cc1ccc(Nc2c(-c3ccc(N4CCOCC4)cc3)nc3c(C)cccn23)cc1 | inconclusive: 39.8 µM [inhibitor, single point] |
| O=C(O)c1ccccc1-c1ccccc1C(=O)NCc1cccc(C(F)(F)F)c1 | inconclusive: 7.08 µM [inhibitor, single point] |
| O=C(Nc1cccc(Cl)c1)c1cccc(N2C(=O)C3CC=CCC3C2=O)c1 (centres undefined) | inactive |

| SMILES | Potency |
| --- | --- |
| Cc1ccc(NC(=O)c2ccc(CSc3nnnn3C)cc2)cc1 | inconclusive: 2.24 µM [inhibitor, single point] |
| CCCC1(C)Nc2ccccc2-c2nc3ccccc3n21 (centres undefined) | inconclusive: 39.8 µM [inhibitor, single point] |
| CCOC(=O)Cn1c(=O)n(-c2cccc(Cl)c2)c2nc(-c3ccccc3Cl)nc(C(N)=O)c21 | inactive |
| COc1ccc(-c2nc3ccccc3o2)cc1NC(=O)COc1ccc(C)c(C)c1 | inactive |
| CC(=O)OCCn1c(C)[n+](CCOC(C)=O)c2cc(Cl)c(Cl)cc21 | inactive |
| COCCNC(=O)c1cc(-c2cccnc2)nc2ccc(Br)cc12 | inactive |
| O=C(O)c1cc(-c2ccc(/C=C3\NC(=O)N(c4ccccc4)C3=O)o2)ccc1Cl | inconclusive: 39.8 µM [inhibitor, single point] |
| COc1ccc(C2=NOC(C(=O)NC(C)C)C2)cc1 (centres undefined) | inactive |
| CCOc1ccc(C2C(C(=O)Nc3ccccc3)=C(C)N=c3s/c(=C/c4cccc(OCC(=O)O)c4)c(=O)n32)cc1 (centres undefined) | inconclusive: 22.4 µM [inhibitor, single point] |
| O=C(CSCCSCC(=O)c1ccco1)c1ccco1 | inconclusive: 14.1 µM [inhibitor, partial curve, poor fit] |
| Cc1nc2c(c(=O)n1Cc1ccco1)c1nc3ccccc3nc1n2Cc1ccccc1 | inconclusive: 31.6 µM [inhibitor, single point] |
| COc1ccc(-c2[nH]ncc2/C=N\NC(=O)c2ccc(Br)o2)cc1OC | inconclusive: 31.6 µM [inhibitor, single point] |
| CNc1nc(-c2ccccc2)[n+](-c2ccc(C)cc2)s1 | active: 7.94 µM |
| COc1ccc(-c2[nH]ncc2CN2CCCC(C(=O)c3cccc(OC)c3)C2)cc1 (centres undefined) | inconclusive: 3.16 µM [inhibitor, single point] |
| O=C1CN(c2nc3nonc3nc2N2CCCCC2)CCN1 | inconclusive: 10 µM [inhibitor, partial curve, poor fit] |
| O=C(CN1CCOCC1)Nc1ccc([N+](=O)[O-])cc1 | inconclusive: 0.562 µM [inhibitor, full curve, poor fit] |
| COCCN1CCN(C(=O)c2ccc3nc(Cc4ccc(OC)c(OC)c4)oc3c2)CC1 | inconclusive: 39.8 µM [inhibitor, single point] |
| Cc1ccccc1NC(=O)Cc1nnc(SCC(=O)N2CCOCC2)n1C | inactive |
| Cc1ccc(CS/C(Nc2ccccc2C)=C(\C#N)C(=O)NCc2ccco2)c(C)c1 | inconclusive: 28.2 µM [inhibitor, partial curve] |
| CCCN(CC(=O)Nc1cc(Cl)ccc1Cl)C(=O)c1ccccc1SCC(=O)N1CCCC1 | inactive |
| O=C(Cn1cnc2nc3c(cc2c1=O)CCCC3)Nc1ccc(F)cc1Cl | inactive |
| CC[C@H](C)C(=O)O[C@@H]1C[C@H](C)C=C2C=C[C@H](C)[C@@H](CC[C@H]3C[C@@H](O)CC(=O)O3)[C@H]21 | inconclusive: 12.6 µM [inhibitor, single point] |

For reference, some entries already given:

| SMILES | Potency |
| --- | --- |
| COCCNC(=O)c1cc(-c2cccnc2)nc2ccc(Br)cc12 | inactive |
| O=C(O)c1cc(-c2ccc(/C=C3\NC(=O)N(c4ccccc4)C3=O)o2)ccc1Cl | inconclusive: 39.8 µM [inhibitor, single point] |
